Earlier results on one compound are cited in patent US20090214648A1 (priority 2008, published 2009).

[1] abbreviates: oral, single dose of a diphenhydramine salt.

With `CN(C)CCOC(c1ccccc1)c1ccccc1` [Diphenhydramine, [2-(diphenylmethoxy)ethyl]dimethylamine], the Oral absorption result (oral administration) is recorded as “well absorbed”. Under setting [1], the “Time to peak plasma concentrations” value is 1.5 to 4 h and the “Time until the drug appears in plasma” value was ≤ 15 min.
